Results published in the supplement of paper PMC10338343.
± gives the standard deviation. Only a part is listed here, and it is no random draw. The uncertainty is large for many entries. This is one part of the list.

Experiments:
[1] = system: MIWI (PIWIL1) piRISC loaded with L1MC piRNA (30 nt); assay: pre-steady-state target cleavage rate (min^-1); higher = faster piRNA-guided slicing of the target; settings: guide: L1MC piRNA 5'p-UAACUAAAUACUAUGCAAGCUGUAGGUCCU;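 note: 1 nM active piRISC with 0.1 nM target library at 33 °C single turnover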
Procedure, shortened: (§1)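 The pre-steady-state cleavage rate was calculated from a burst-and-steady-state fit. Data came from Cleave-'n-Seq, in which […] transcribed, DNA-blocked target RNA library was mixed with 1 nM active affinity-purified piRISC carrying one synthetic guide, with or without 500 nM GTSF1 partner protein, in HEPES–potassium acetate buffer at 33 °C for 0–8 or 0–960 min. Uncleaved targets were sequenced and normalised to depth and to weakly complementary targets, three trials were pooled, and k3 was capped at 0.0001 min^-1.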

[2] = system: EfPiwi piRISC loaded with L1MC piRNA (26 nt); assay: pre-steady-state target cleavage rate (min^-1); guide: L1MC piRNA 5'p-UAACUAAAUACUAUGCAAGCUGUAGG; MIWI and MILI are mouse PIWI proteins and EfPiwi is from a freshwater sponge; tags in brackets are library labels; higher = faster piRNA-guided slicing of the target
Procedure, shortened: as §1

[3] = auxiliary factor: 500 nM mouse GTSF1
[4] = auxiliary factor: none (no GTSF1)
[5] = auxiliary factor: 500 nM Ephydatia muelleri Gtsf1
[6] = auxiliary factor: none (no Gtsf1)

| Sequence | pre-steady-state target cleavage rate [1, 3] | pre-steady-state target cleavage rate [1, 4] | pre-steady-state target cleavage rate [2, 5] | pre-steady-state target cleavage rate [2, 6] |
| --- | --- | --- | --- | --- |
| UCCUGGAUGUCGUUGCAUAGUAAUUUGUUA | 0.000598 ± 0.016 | 0.00109 ± 0.0061 | 0.000356 ± 0.01 | 0.000232 ± 0.03 |
| UCCUGGAACAGCUUGCAUAGUAUUUGGUUA | 0.781 ± 0.041 | 0.0538 ± 0.011 | 0.00496 ± 0.002 | 0.000536 ± 0.015 |
| UCCUGGUACAGCUUGCAUAGUUUUUAGUAA | 0.177 ± 0.037 | 0.0195 ± 0.0054 | 0.00728 ± 0.0027 | 0.000509 ± 0.025 |
| UCCUGGAUGUGCAUGGAUAGUAUUUAGUUA | – | 0.00307 ± 0.0034 | 0.00193 ± 0.004 | 0.000928 ± 0.011 |
| UCCUGGAUGAGCUUGCAUAGAUAUUUAGUUA | 0.00222 ± 0.0047 | 0.00178 ± 0.004 | 0.00152 ± 0.0053 | 0.000442 ± 0.019 |
| UCCUGGAUGUGCAUGCAUAGUUUUUAGUUA | – | 0.00341 ± 0.0036 | 0.000601 ± 0.0062 | 0.000759 ± 0.013 |
| UCCUGGUCACAGCUUGCAUAGUAUUUAGUUA | 0.818 ± 0.034 | 0.0939 ± 0.022 | 0.00857 ± 0.0072 | 0.00386 ± 0.0078 |
| UCCUGGAUGUGCUUGCAUACUAAUUAGUUA | – | 0.00123 ± 0.0045 | 0.00146 ± 0.0026 | 0.000306 ± 0.023 |
| UCCUGGAUGUCGAUGCCUAGUAUUUAGUUA | 0.000752 ± 0.01 | 0.000538 ± 0.011 | 0.000429 ± 0.0068 | 0.000148 ± 0.041 |
| UCCUGGAUGUCCUUGCAUAGUGAUUUAGUUA | 0.00314 ± 0.0046 | 0.00203 ± 0.0043 | 0.0018 ± 0.0043 | 0.000209 ± 0.036 |
| UCCUGGAUGUCCUUGCAUAGUAUUUAUGUUA | – | 0.00166 ± 0.0049 | 0.00143 ± 0.0046 | 0.000376 ± 0.02 |
| UCCUGGAUGUCCUUGCAUAGUAGUUUAGUUA | 0.00343 ± 0.004 | 0.0018 ± 0.0041 | 0.00253 ± 0.0037 | 0.000839 ± 0.011 |
| UCCUGGAUCAGCUUGCAUAGUUUUAGUUA | 0.00262 ± 0.0043 | 0.00157 ± 0.0032 | 0.000712 ± 0.0059 | 0.000118 ± 0.031 |
| UCCUGCUACAGCCUGCAUAGUAUUUAGUUA | 0.976 ± 0.05 | 0.0598 ± 0.011 | 0.01 ± 0.0029 | 0.000671 ± 0.011 |
| UCCUGGAUGUCGAAGCCUAGUAUUUAGUUA | 0.000229 ± 0.028 | 0.000234 ± 0.0093 | 0.000264 ± 0.0097 | 0.000256 ± 0.017 |
| UCCUGGAUGUCCUUGCAUAGUAUUUACAUA | – | 0.00207 ± 0.0035 | 0.00306 ± 0.0035 | 0.000362 ± 0.017 |
| UCCUGGUACAGCUUGCAUAGUUAAAUCAAA [g10:g24:cont:t1A] | – | 0.00131 ± 0.007 | 0.000622 ± 0.0063 | 0.000114 ± 0.058 |
| UCCUGGAUGUGCUUGCAUAGUAUUUUAGUUA | 0.128 ± 0.018 | 0.021 ± 0.0069 | 0.00401 ± 0.005 | 0.000434 ± 0.044 |
| UCCUGGAUGUCGUUGCAUAAUAUUUAGUUA | 0.00371 ± 0.0054 | 0.00132 ± 0.0056 | 0.000746 ± 0.0058 | 0.00062 ± 0.013 |
| UCCUGGAACAGUUGCAUAGUAUUUAGUUA | 0.337 ± 0.022 | 0.00545 ± 0.0021 | 0.0543 ± 0.013 | 0.00165 ± 0.006 |
| UCCUGGAUGAGCUUGCAUGGUAUUUAGUUA | 0.743 ± 0.043 | 0.0817 ± 0.02 | 0.0127 ± 0.0045 | 0.000974 ± 0.011 |

Looked up one by one from above, two records:

| Sequence | pre-steady-state target cleavage rate [1, 3] | pre-steady-state target cleavage rate [1, 4] | pre-steady-state target cleavage rate [2, 5] | pre-steady-state target cleavage rate [2, 6] |
| --- | --- | --- | --- | --- |
| UCCUGGAUGUCCUUGCAUAGUAGUUUAGUUA | 0.00343 ± 0.004 | 0.0018 ± 0.0041 | 0.00253 ± 0.0037 | 0.000839 ± 0.011 |
| UCCUGGUACAGCUUGCAUAGUUAAAUCAAA [g10:g24:cont:t1A] | – | 0.00131 ± 0.007 | 0.000622 ± 0.0063 | 0.000114 ± 0.058 |
